Patent publication US11684594B2, “Antifungal prophylaxis for cornea” (PRESIDENT AND FELLOWS OF HARVARD COLLEGE, priority 2020, dated 2023)
Some of these results come from one statement about several compounds together.

Key:
C. albicans (ATCC 24433) = test: In vitro time kill test, yeast; format: cell-based, Candida albicans; conditions: FIG. 2B; within 1 min of contact; PI 0.5%, #3-IL 10 mM, CDG 0.05%
Protocol: (§1) In Vitro Time Kill Tests. Microtiter time kill tests were carried out in vitro according to the published CLSI methods (M27-A2).^22
The inoculum was prepared by adjustment of the optical density at 600 nm (OD600) to 1.0 (corresponding to approximately 1×10^6 CFU/mL), and dilution by 1:10 in the final solution. To confirm the starting inoculum size, yeasts were plated […] and colonies counted after growth for 24 hrs at 37° C. The test solutions were neutralized at each time point by ten-fold dilution in Dey-Engley neutralizing broth (Sigma-Aldrich; St Louis, Mo.), and serially track diluted (PMID: 9343684) on Sabouraud dextrose agar (six serial 1:10 dilutions, 0.01 mL each) in technical triplicate. Colonies were counted and recorded following aerobic incubation for 24 hrs at 37° C.
(§2) To investigate the fungicidal activity of various antibiotics and antimicrobials, the reduction in fungal load after short contact times (0-15 min, FIGS. 2-3), to account for the effect of rapid dilution by the tear film, as occurs in patients after topical instillation, was measured.^23 The detection limit for time kill tests was approximately 100 CFU/mL for C. albicans, and 1 CFU/mL for F. solani and A. fumigatus (corresponding to a ≥3 log difference from the starting inoculum). […]

[1] = tested on: F. solani (ATCC MYA-3636); test: In vitro time kill test, filamentous fungi; format: cell-based, Fusarium solani; conditions: FIG. 2C; within 1 min of contact; Polytrim full strength, PI 0.5%, BAK 40 µg/mL, #3-IL 10 mM
Protocol: as §1
ii) Filamentous fungi: The antibiotic solutions, at either full or 1/10 strength, and antiseptics were inoculated with approximately 2×10^5-2×10^6 conidia/mL of F. solani or A. fumigatus in RPMI broth (buffered with MOPS at pH 7.0; Mediatech; Manassas, Va.) for 0-15 min. Conidia were collected by flooding the agar plates with 10 mL of sterile 1×PBS and 0.1% Tween® 20 (Sigma Aldrich; St Louis, Mo.). The solution was transferred to a sterile conical tube, and particles were allowed to settle for 10 min. The resulting supernatant was transferred to a new sterile conical tube and centrifuged at 3,000×g for 5 min. […] Viable conidia were counted and recorded following aerobic incubation for 48 hrs (or as soon as growth was visible) at 25-35° C.
as §2

povidone iodine [PI]
Reduction in viable colonies (C. albicans (ATCC 24433)): ≥ 3 log10 | Reduction in viable conidia [1]: ≥ 3 log10
